The list shows a part of the results.

Amino acid sequences for entries named in this document (tags omitted).
UniProt Q0JBA9, entry or part of it: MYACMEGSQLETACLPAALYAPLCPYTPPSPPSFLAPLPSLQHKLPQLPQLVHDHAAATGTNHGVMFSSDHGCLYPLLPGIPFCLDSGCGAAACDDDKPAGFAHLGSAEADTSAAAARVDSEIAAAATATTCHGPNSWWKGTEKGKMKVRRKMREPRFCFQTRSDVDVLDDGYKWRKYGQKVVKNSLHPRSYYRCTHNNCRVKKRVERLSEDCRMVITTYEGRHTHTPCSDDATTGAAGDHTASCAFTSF

The target of this assay is OsWRKY34 (Oryza sativa, UniProt Q0JBA9 1-250). The assay can be described thus: protein-binding microarray (RPBM); PBS, 2% BSA, 51.3 ng/ul salmon testes DNA, 50 uM zinc acetate, 200 nM TF, 25 C, 1 h; high values mean tight binding. As to conditions: protein: recombinant; tags: N-terminal polyhistidine and DsRed monomer fusion (pET32a); label: CyDye5-dUTP incorporated in the synthesized complementary strand; 3' TTTTT single-stranded linker to array surface; dsDNA, one strand shown. Put shortly: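 In PBS with 2% BSA, salmon testes DNA and 50 µM zinc acetate, 200 nM protein was incubated on a custom Agilent array at 25 °C for 1 h and then washed off. The array had been made double-stranded by primer extension with Cy5-dUTP and blocked with 2% BSA. The proteins were transcription factors fused N-terminally to polyhistidine and DsRed, expressed in E. coli BL21-CodonPlus and purified on Ni–NTA. The binding signal is per-feature fluorescence intensity (arbitrary units) from an Axon 4000B scanner.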
As for “AGATCAGATTCTGTACACAGTTCGTCTTCTTGCTCGGTGACGGAGTCACCTAGTGCAG”, the binding signal was 8420 fluorescence intensity (a.u.).
With “AGTGGGCGGCAGGGTCTATTTTTGTAATTTTTTTGGCCGACGGAGTCACCTAGTGCAG”, the binding signal was 9810 fluorescence intensity (a.u.).
In the case of “CTCCTCGCTGCTGTTATATCCGCTTTCCTCTCCTCCTCCTCGGAGTCACCTAGTGCAG”, the binding signal is 10600 fluorescence intensity (a.u.).
As to “TTCTGGGTCGTGATGGGTTGTTGTGGTGGCGTGAGCAGGTCGGAGTCACCTAGTGCAG”, the binding signal is 9060 fluorescence intensity (a.u.).
Turning to “TATAATGATAGTACAGTTTGACGATTTTCTCTACTTCTGGCGGAGTCACCTAGTGCAG”, the binding signal was 8890 fluorescence intensity (a.u.).
Turning to “CACGATGATTGTTGCTGCACCATAGTCTCCATGTGTGTACCGGAGTCACCTAGTGCAG”, the binding signal is 8410 fluorescence intensity (a.u.).
With “TCATAGTACTTTAAGTGTGATTTATATCTTGTATATTTACCGGAGTCACCTAGTGCAG”, the binding signal was 8880 fluorescence intensity (a.u.).
The figure for “GGCAGCTGTCTGATCCTGGTTTAACATCTTGAGAATTTTACGGAGTCACCTAGTGCAG” is 8450 fluorescence intensity (a.u.); for “CCCTCTTTTCCGCACGCACGCTTTTCAAACTGCTAAACGACGGAGTCACCTAGTGCAG” it is 9760 fluorescence intensity (a.u.); for “TACAGAACTTTTATCTGCTACCATCTACTTAACTGGCTTACGGAGTCACCTAGTGCAG” it is 8670 fluorescence intensity (a.u.).
Consider “GGTGGGACGTGGTGGGCGTCAAGGCGGCGGTGGGAGGGGACGGAGTCACCTAGTGCAG”, for which the binding signal is 20400 fluorescence intensity (a.u.).
To “TCATTTTCTGAAAAATCTGATTTCTATTTTTTTTCCATTTCGGAGTCACCTAGTGCAG” belongs 10100 fluorescence intensity (a.u.); to “AAATCCTCTCGTTTCTCCGCTCGCTGATTCATTCTCAACGCGGAGTCACCTAGTGCAG”, 9020 fluorescence intensity (a.u.); to “TGAATATGGCAGCTTGGATCATTTACCTTTTAGCGTCCCTCGGAGTCACCTAGTGCAG”, 8750 fluorescence intensity (a.u.).
For the sequence “TTCGACTTTCAACCGGTCAGTCTCAGCGCTCTTTCTGATCCGGAGTCACCTAGTGCAG”, the binding signal was 9730 fluorescence intensity (a.u.).
The figure for “AATACTTAATTTTGTACTGATAGTAATCATTTGCATTCTACGGAGTCACCTAGTGCAG” is 9320 fluorescence intensity (a.u.).
“ATGTAATTCACGCTCCATGTACTGCACATGATTTCGCACACGGAGTCACCTAGTGCAG”: the binding signal is 8200 fluorescence intensity (a.u.).
To “ACGGTGCATCTCTCAGCCACACAGCCCCACCCGCGCCATGCGGAGTCACCTAGTGCAG” belongs 9850 fluorescence intensity (a.u.); to “CACCCCAGTCCCGTGTATTCCCCGCTCTTCCGCCTTCCGCCGGAGTCACCTAGTGCAG”, 8410 fluorescence intensity (a.u.); to “CCATGGTCTCTTGATCGAGGTGTTCATTTTTTTTCCTCAACGGAGTCACCTAGTGCAG”, 11900 fluorescence intensity (a.u.).
As for “CTCCCACCCTGCTTCACTCTGTGTCCCTGTGACAGACAAACGGAGTCACCTAGTGCAG”, the binding signal is 8230 fluorescence intensity (a.u.).
The figure for “GTCCGCGTCACGCACGCGCGCCTGCTCTTGCCGCTCGATCCGGAGTCACCTAGTGCAG” is 12200 fluorescence intensity (a.u.).
As to “CCGCCGCCATTGACGACCACCGCGCTCGTCCCATCCCATGCGGAGTCACCTAGTGCAG”, the binding signal was 9050 fluorescence intensity (a.u.).
On to “ATCTCTCTCATCCGATTTCTACGTTTTTCCCGCGGTCAAACGGAGTCACCTAGTGCAG”, for which the binding signal was 9690 fluorescence intensity (a.u.).
As to “CGTGGATTATTTCATTCCGTACCACTCCATCCATCCGAAGCGGAGTCACCTAGTGCAG”, the binding signal is 8360 fluorescence intensity (a.u.).
Consider “GTAGTAACCTCTTGTTCGGTGTAGTGTGTAATTTTATTAGCGGAGTCACCTAGTGCAG”, for which the binding signal was 8640 fluorescence intensity (a.u.).
Consider “CGGGTTCAATATATTGTTTTTTTTAAGACTGGTTCAATATCGGAGTCACCTAGTGCAG”, for which the binding signal was 8880 fluorescence intensity (a.u.).
With “TATTACTTGGACCACTTTAAACTATTCATCATGTTTATTTCGGAGTCACCTAGTGCAG”, the binding signal was 8500 fluorescence intensity (a.u.).
Take “CCGCCATCTCATCTGATCTCATCCATTGATCCTCCTCGTTCGGAGTCACCTAGTGCAG”: the binding signal was 10400 fluorescence intensity (a.u.).
With “TCACACGCGCGCCACACTCATGCCATGTATGTCTATATATCGGAGTCACCTAGTGCAG”, the binding signal was 15400 fluorescence intensity (a.u.).
Regarding “AGGACTTTGGTTATCTAATCGAGTTTGTGTCTTTTTTTGTCGGAGTCACCTAGTGCAG”, the binding signal was 8910 fluorescence intensity (a.u.).
Consider “GCTTCCGCGTTTCTTCTCGGCGACGCACCCCACACACGCACGGAGTCACCTAGTGCAG”, for which the binding signal was 9370 fluorescence intensity (a.u.).
For the sequence “AGTCTAAAATTTACCGCCTGTTTTGCACATATGTTTGGATCGGAGTCACCTAGTGCAG”, the binding signal was 8510 fluorescence intensity (a.u.).
As for “ATGACCATATATGTAACCATGTATGCAGGGGCGGATCCAGCGGAGTCACCTAGTGCAG”, the binding signal was 8660 fluorescence intensity (a.u.).
With “ATGGTTTCCGTCCGTTTCCGTACCGTTTTCACCCCTACCCCGGAGTCACCTAGTGCAG”, the binding signal is 10100 fluorescence intensity (a.u.).
In the case of “TTAGTTGAGAGACGTTCGGTATTTGGTTTTGCGGTTGGGGCGGAGTCACCTAGTGCAG”, the binding signal was 11200 fluorescence intensity (a.u.).
Turning to “GTCTCAATTCTCATCTACTCTCTTCTCTCCCTGTATGACCCGGAGTCACCTAGTGCAG”, the binding signal was 8160 fluorescence intensity (a.u.).
To “TCGTTTGCCCGGATTTCATAAGTTGAGGGATGGGTTATACCGGAGTCACCTAGTGCAG” belongs 8560 fluorescence intensity (a.u.); to “CACAACTACTCCATATTTCCTTTTTTCTCATTTCTTCGATCGGAGTCACCTAGTGCAG”, 10400 fluorescence intensity (a.u.); to “AACCCATTTTCTGCTCTGCTCTTGCTTTGCTTTGCATTTCCGGAGTCACCTAGTGCAG”, 14000 fluorescence intensity (a.u.).
“TACATATGGTCTACGTACGCCGTCGAGTTGGGTGGGAAGACGGAGTCACCTAGTGCAG”: the binding signal is 8980 fluorescence intensity (a.u.).
As to “ACCAGCTTGTTTTCCTCCTTATCAGTTCTTCTATACTGTCCGGAGTCACCTAGTGCAG”, the binding signal is 8050 fluorescence intensity (a.u.).
With “TGCATACCCCTTTCGTTTCCCTACCATATTCTCCGGGTGACGGAGTCACCTAGTGCAG”, the binding signal was 12800 fluorescence intensity (a.u.).
As for “TTTTTTCTTTTAGCAAATTCCCTTGCTGATTTGGCACTTTCGGAGTCACCTAGTGCAG”, the binding signal was 9750 fluorescence intensity (a.u.).
For “CCCATTGTTATTCCCCTACGTTTGTAATAAACTCCTCTATCGGAGTCACCTAGTGCAG”, the binding signal is 8430 fluorescence intensity (a.u.).
With “AGAGCTAACTATTTTTTCCTCCTGGGTTGGAGATGCCACACGGAGTCACCTAGTGCAG”, the binding signal is 8720 fluorescence intensity (a.u.).
For “CCCCGATTCCACCACAGGCCACAGACCCTTCACCCGTGGCCGGAGTCACCTAGTGCAG”, the binding signal was 8760 fluorescence intensity (a.u.).
As for “TCCATCCCGCATCCGATTCTTCCAACCAATCTCATCTTCTCGGAGTCACCTAGTGCAG”, the binding signal is 9490 fluorescence intensity (a.u.).
Turning to “CAACTTCTCTACGCTTCATCACAAAACCGCCTTAAGAACCCGGAGTCACCTAGTGCAG”, the binding signal is 8720 fluorescence intensity (a.u.).
Consider “GAGTCGTCCTAGTTTTGTTCATCGCCGTCGTCTATTATTGCGGAGTCACCTAGTGCAG”, for which the binding signal is 9180 fluorescence intensity (a.u.).
To “TACTGTTGCTGCTAGTTCACCATTTGCGCATTTCCTCTTCCGGAGTCACCTAGTGCAG” belongs 11700 fluorescence intensity (a.u.); to “CTAAGTTTTTGTGTCCAATTTTGATTGTCCGTCTTATATGCGGAGTCACCTAGTGCAG”, 9720 fluorescence intensity (a.u.).
For “GTAGGGTTGCTTGTGAAGATGAAATTATATGCCTAATTAACGGAGTCACCTAGTGCAG”, the binding signal was 11800 fluorescence intensity (a.u.).
The figure for “ACATTGTCGGGAGCATACCTCTCATCAAGTTATCACATTTCGGAGTCACCTAGTGCAG” is 9910 fluorescence intensity (a.u.).

For the origin of these results see paper PMC7819943, “Rice protein-binding microarrays: a tool to detect cis-acting elements near promoter regions in rice”.
